# Source: PubChem BioAssay AID2685 (National Center for Advancing Translational Sciences (NCATS), 2010)
# The list shows a part of the results. These are further read-outs of the screen, such as a control signal, another cell line or another target. No call is given for them. Most of these compounds were active or inconclusive in the main read-out, so they are no random draw. Potencies come from curve fits of mixed quality, noted in brackets.
# Assay: qHTS Assay for Lipid Storage Modulators in Drosophila S3 Cells;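 for cell number change: cells counted by Cell Tracker Red CMTPX staining in the red channel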
# Details: BODIPY lipid droplet fluorescence, 18-24 h; for cell number change: measured here: cell count max response, cells fed with added oleic acid
# In short: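 Laser-scanning cytometry quantifies lipid droplet accumulation (500–530 nm total intensity; droplet/cell object ratio) in oleic acid-fed (400 uM added) Drosophila S3 cells treated with a concentration series. 20 uM Triacsin C defined 100% inhibition.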
# [1] = measured here: cell number channel AC50, cells fed with added oleic acid
# [2] = measured here: lipid fluorescence (Fed channel) AC50, cells fed with added oleic acid
Compound,cell number change,AC50 [1],AC50 [2]
O=C(O)CC1COc2ccccc2N1C(=O)c1ccccc1Cl (stereo not drawn),17.2%,"0.082 µM [falling, full curve, poor fit]",
CCCCc1c(C)c2ccc(OCC(C)=O)cc2oc1=O,34.1%,"16.4 µM [rising, single point]",
COc1cc(/C=C2\C(=N)N3N=C(C)SC3=NC2=O)cc(OC)c1OCCOc1ccccc1C,-16.4%,,"23.1 µM [falling, single point]"
CCOC(=O)c1c(C)n(C)c2ccc(OC)c(NC(=O)CCN3CCSCC3)c12,46.8%,"5.17 µM [rising, full curve]","4.61 µM [rising, single point]"
COc1cc(NC(=S)NN2CCN(C)CC2)cc(OC)c1OC,-7.9%,"0.731 µM [falling, single point]","16.4 µM [rising, partial curve]"
C#CCn1c(C)cc(C)c(S(=O)(=O)c2ccccc2)c1=O,-32%,"3.26 µM [falling, full curve, poor fit]",
Cc1ccc(C(=O)OCC(=O)NCCNC(=O)COC(=O)c2ccc(C)s2)s1,0.5%,,
C/C(=N\NC(=O)c1ccncc1)c1cccc(NC(=O)c2ccc(C(C)(C)C)cc2)c1,-51.6%,"36.6 µM [falling, partial curve, poor fit]","20.6 µM [falling, partial curve]"
COc1cccc(NC(=S)NCc2ccco2)c1,5.87%,,"4.11 µM [rising, partial curve]"
N#Cc1cccc(C(c2nnnn2C2CCCC2)N2CCCCCC2)c1 (stereo not drawn),-2.07%,,"29.1 µM [falling, single point]"
CCOC(=O)N(Cc1ccccc1)C(C(=O)O)C(C(=O)O)N(Cc1ccccc1)C(=O)OCC (stereo not drawn),-30.8%,"0.184 µM [falling, full curve, poor fit]",
Cc1ccc(NC(=O)c2cc(-c3ccc(C)o3)nc3ccccc23)nc1,-56.2%,"29.1 µM [falling, single point]","29.1 µM [falling, single point]"
Cc1cc(C(=O)Nc2cccc([N+](=O)[O-])c2C)cs1,35.3%,,"7.08 µM [rising, full curve, poor fit]"
N#Cc1cc2c(=O)n3ccccc3nc2n(CCCn2ccnc2)c1=N,1.21%,,"0.0058 µM [rising, full curve, poor fit]"
Cc1c(C(=O)C(=O)N2CCN(C)CC2)c2ccccc2n1C,-8.77%,"0.731 µM [falling, single point]","20.6 µM [falling, single point]"
O=C(O)c1ccc(S(=O)(=O)Nc2ccc(O)c(Sc3nc4ccccc4s3)c2)cc1,11.8%,,"2.31 µM [falling, single point]"
O=C(CSC1=NCCN1)Nc1cccc(C(F)(F)F)c1,110%,"5.8 µM [falling, single point]","6.51 µM [falling, single point]"

Compound,cell number change,AC50 [1],AC50 [2]
CCCn1c(SCC(=O)Nc2nc(C)cs2)nnc1-c1cccnc1,21.3%,"0.461 µM [rising, full curve, poor fit]","0.411 µM [rising, full curve]"
O=C(c1ccncc1)c1nccn1-c1ccccn1,1.82%,,"13 µM [rising, partial curve]"
CCOC(=O)N1CCN(C(=O)c2ccc(CN(c3ccccc3)S(C)(=O)=O)cc2)CC1,13.7%,,"29.1 µM [rising, single point]"
COc1cccc(-n2c(C)nnc2SCC#N)c1,-32.4%,"16.4 µM [falling, single point]","29.1 µM [falling, single point]"
O=C(COC(=O)CNS(=O)(=O)c1ccccc1)Nc1ccc(Cl)cn1,-16.4%,"3.26 µM [falling, single point]",
Cc1c(C)c2ccc(OCC(=O)N3CC[C@@]4(O)CCCC[C@H]4C3)c(C)c2oc1=O,-8.74%,,"1.3 µM [falling, partial curve]"
CCOC(=O)c1c(NC(=O)CSc2nnc3ccccn23)sc2c1CCC2,29.2%,,"29.1 µM [rising, single point]"
COC(CCN(C)C)(c1ccccc1)c1ccccc1,,,"0.164 µM [falling, full curve]"
COc1cc(S(=O)(=O)Nc2c(C)cc(C)cc2C)ccc1Cl,-11.8%,,"0.058 µM [rising, full curve, poor fit]"
COc1cc(S(=O)(=O)NC2CCCCC2)ccc1F,35.5%,"0.411 µM [rising, full curve, poor fit]","0.58 µM [rising, single point]"
OC(CN1c2ccccc2Sc2ccccc21)Cn1nnc2ccccc21 (stereo not drawn),-61.9%,"13 µM [falling, partial curve]",
CCc1nnc(NC(=O)CN2C(=O)c3ccccc3S2(=O)=O)s1,-43.3%,"13 µM [falling, partial curve]","29.1 µM [falling, single point]"
COc1ccc(NC(=O)NNC(=O)c2ccc3ccccc3c2O)c(OC)c1,31.4%,"7.08 µM [rising, full curve, poor fit]","12.6 µM [rising, partial curve]"
CC(=O)OCC1=C(C(=O)O)N2C(=O)C(NC(=O)c3ccc(F)cc3)C2SC1 (stereo not drawn),-47.6%,"29.1 µM [falling, single point]","25.9 µM [falling, single point]"
CCN1CCCC1CNC(=O)c1cc2c(OC)cccc2[nH]1 (stereo not drawn),13.2%,,"10.3 µM [rising, single point]"
COc1cccc(OC)c1NC(=O)Cn1nc(-c2ccc3c(c2)OCCO3)ccc1=O,3.48%,,"29.1 µM [falling, partial curve]"
Cc1cccc([C@@H]2[C@@H]3C(=O)N(Cc4ccccc4)C(=O)[C@@H]3[C@]3(Cc4ccccc4)C(=O)N(c4ccccc4)C(=O)N23)c1,-3.5%,,"8.2 µM [rising, partial curve]"

# Filtered by structure, the compounds so far containing a furan ring, fused or not.
Compound,cell number change,AC50 [1],AC50 [2]
COc1cccc(NC(=S)NCc2ccco2)c1,5.87%,,"4.11 µM [rising, partial curve]"
Cc1ccc(NC(=O)c2cc(-c3ccc(C)o3)nc3ccccc23)nc1,-56.2%,"29.1 µM [falling, single point]","29.1 µM [falling, single point]"
